Paper PMC5781335, “Identification of danthron as an isoform-specific inhibitor of HEME OXYGENASE-1/cytochrome P450 reductase interaction with anti-tumor activity” (Journal of Biomedical Science, 2018)
No constants are given. Whether binding was seen depends on the method and setting. Binding seen in cells or lysates may run through a third protein. Some entries that bind do so weakly or less than the wild type. Where a sequence is shown, tags or fusion partners need not be part of it.

Biological target: T1, N-terminal-luciferase-fused HO-2 construct (Luc-HO-2) (human) (UniProt P30519)
T1 sequence: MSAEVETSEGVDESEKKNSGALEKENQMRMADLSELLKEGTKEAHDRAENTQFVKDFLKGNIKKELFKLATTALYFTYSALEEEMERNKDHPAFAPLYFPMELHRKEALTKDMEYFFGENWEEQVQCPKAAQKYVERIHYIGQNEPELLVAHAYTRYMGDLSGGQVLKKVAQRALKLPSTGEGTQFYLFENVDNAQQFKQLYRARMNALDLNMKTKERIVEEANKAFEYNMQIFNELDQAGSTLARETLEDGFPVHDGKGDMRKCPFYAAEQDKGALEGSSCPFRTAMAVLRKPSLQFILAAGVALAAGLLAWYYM
Test: FRET or BRET; BRET donor saturation in live HEK293T cells: constant Luc-HO-1 or Luc-HO-2 plasmid (0.25 ug) and increasing CPR-GFP or GFP plasmid (0 to 0.875 ug); coelenterazine 400a; one-site saturation binding fit, KD referred to as BRET50; no compound

binding: binds
B1: CPR construct with its carboxyl-terminus fused to GFP (CPR-GFP) (enzyme, UniProt P16435 1-677)
chain: MGDSHVDTSSTVSEAVAEEVSLFSMTDMILFSLIVGLLTYWFLFRKKKEEVPEFTKIQTLTSSVRESSFVEKMKKTGRNIIVFYGSQTGTAEEFANRLSKDAHRYGMRGMSADPEEYDLADLSSLPEIDNALVVFCMATYGEGDPTDNAQDFYDWLQETDVDLSGVKFAVFGLGNKTYEHFNAMGKYVDKRLEQLGAQRIFELGLGDDDGNLEEDFITWREQFWPAVCEHFGVEATGEESSIRQYELVVHTDIDAAKVYMGEMGRLKSYENQKPPFDAKNPFLAAVTTNRKLNQGTERHLMHLELDISDSKIRYESGDHVAVYPANDSALVNQLGKILGADLDVVMSLNNLDEESNKKHPFPCPTSYRTALTYYLDITNPPRTNVLYELAQYASEPSEQELLRKMASSSGEGKELYLSWVVEARRHILAILQDCPSLRPPIDHLCELLPRLQARYYSIASSSKVHPNSVHICAVVVEYETKAGRINKGVATNWLRAKEPAGENGGRALVPMFVRKSQFRLPFKATTPVIMVGPGTGVAPFIGFIQERAWLRQQGKEVGETLLYYGCRRSDEDYLYREELAQFHRDGALTQLNVAFSREQSHKVYVQHLLKQDREHLWKLIEGGAHIYVCGDARNMARDVQNTFYDIVAELGAMEHAQAVDYIKKLMTKGRYSLDVWS
